Reference: PubChem BioAssay AID1224830 (NIAID, 2016)

Purpose: 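Genes whose knock-down alters the TNF-alpha reporter response to LPS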 (primary screen)
Cell system: human THP-1 monocytic leukaemia cells, TNF dual-luciferase reporter clone, PMA-differentiated to macrophage-like cells
Knock-down reagent: siRNA pool against human genes, 50 nM
Timing: LPS for 4 h, given about 3 days after siRNA transfection
Treatment: bacterial LPS (TLR4 ligand), 10 ng/ml
Detection: 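Ratio of firefly to renilla light, scaled to the plate median and expressed as a robust z-score per replicate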
Scale: TNF reporter robust z-score: higher = stronger TNF reporter response to LPS
Rule for the call: 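Each well counts as active if its z-score is over 2.8 or under -1.5; controls are left without a call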
This is one part, drawn at random, of about 18,000 reagents tested. Over the whole deposit, about 2,900 (16%) were called active. 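Calls are made per well; low scores hint the gene aids the LPS response, high scores that it dampens it.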 Unmarked entries are inactive. Repeated entries: four replicate wells of each siRNA pool. No sequences are given here.

| Gene | TNF reporter robust z-score |
| --- | --- |
| S1PR2 | -0.99 |
| S1PR2 | -1.34 |
| S1PR2 | -0.74 |
| S1PR2 | -0.92 |
| PI16 | -0.65 |
| PI16 | -0.95 |
| PI16 | -1.47 |
| PI16 | 0.21 |
| NELL2 | -1.19 |
| NELL2 | -0.65 |
| NELL2 | -0.77 |
| NELL2 | -0.45 |
| ZSCAN32 | -1.25 |
| ZSCAN32 | -0.49 |
| ZSCAN32 | -0.95 |
| ZSCAN32 | -0.7 |
| UTS2B | -1.35 |
| UTS2B | -1.08 |
| UTS2B | -0.54 |
| UTS2B | -0.56 |
| C1orf115 | 0.8 |
| C1orf115 | 2.98 (active) |
| C1orf115 | 1.13 |
| C1orf115 | 1.84 |
| GHRHR | 2.09 |
| GHRHR | 0.99 |
| GHRHR | 1.74 |
| GHRHR | -0.4 |
| HAVCR1 | -0.89 |
| HAVCR1 | -0.77 |
| HAVCR1 | -0.37 |
| HAVCR1 | -0.41 |
| GSDME | 0.41 |
| GSDME | 0.98 |
| GSDME | 0.08 |
| GSDME | 1.07 |
| PMS2P5 | 0.95 |
| PMS2P5 | 0.01 |
| PMS2P5 | 0.61 |
| PMS2P5 | 0.98 |
| RAB40B | -1.12 |
| RAB40B | 0.8 |
| RAB40B | 1.41 |
| RAB40B | 0.9 |
| KLK12 | -0.41 |
| KLK12 | -0.36 |
| KLK12 | -0.3 |
| KLK12 | -0.76 |
| KCNG1 | 1.61 |
| KCNG1 | 1.06 |
| KCNG1 | 1.31 |
| KCNG1 | 1.98 |
| C9orf153 | 0.48 |
| C9orf153 | 1.49 |
| C9orf153 | 1.02 |
| C9orf153 | 2.03 |
| RAD9A | 1.19 |
| RAD9A | 1.51 |
| RAD9A | 0.87 |
| RAD9A | 1.24 |
| ESRRB | -0.31 |
| ESRRB | 1.22 |
| ESRRB | 1.04 |
| ESRRB | 1.12 |
| BARX1 | -1.22 |
| BARX1 | -1.13 |
| BARX1 | -1.3 |
| BARX1 | -1.06 |
| CWH43 | -0.81 |
| CWH43 | 0.55 |
| CWH43 | 0.74 |
| CWH43 | 0.72 |
| CPEB1 | -0.22 |
| CPEB1 | 0.11 |
| CPEB1 | 0.94 |
| CPEB1 | 3.87 (active) |
| PHTF2 | -0.74 |
| PHTF2 | -0.13 |
| PHTF2 | -0.68 |
| PHTF2 | 0.02 |
| TMEM17 | 0.13 |
| TMEM17 | 0.52 |
| TMEM17 | -1.13 |
| TMEM17 | -0.91 |
| FGFR1 | -0.53 |
| FGFR1 | -0.28 |
| FGFR1 | -0.97 |
| FGFR1 | -0.35 |
| OR56B1 | 0.1 |
| OR56B1 | -0.51 |
| OR56B1 | -0.79 |
| OR56B1 | 0.31 |
| CRYL1 | -1.06 |
| CRYL1 | 0.43 |
| CRYL1 | 0.51 |
| CRYL1 | 0.44 |
| DEPDC4 | -1.29 |
| DEPDC4 | -0.43 |
| DEPDC4 | 2.53 |
| DEPDC4 | -0.21 |
| USP25 | 0.98 |
| USP25 | 1.57 |
| USP25 | 0.78 |
| USP25 | -0.6 |
| CCDC144BP | -0.65 |
| CCDC144BP | 0.19 |
| CCDC144BP | -0.32 |
| CCDC144BP | 1.07 |
| IFIT1 | 3.74 (active) |
| IFIT1 | 2.53 |
| IFIT1 | 2.4 |
| IFIT1 | 3.6 (active) |
